{"sequences": {"note": "By UniProt entry, the sequences of proteins in these tests, tags left out. Residues count along the entry.", "UniProt P02769, residues 25-607": "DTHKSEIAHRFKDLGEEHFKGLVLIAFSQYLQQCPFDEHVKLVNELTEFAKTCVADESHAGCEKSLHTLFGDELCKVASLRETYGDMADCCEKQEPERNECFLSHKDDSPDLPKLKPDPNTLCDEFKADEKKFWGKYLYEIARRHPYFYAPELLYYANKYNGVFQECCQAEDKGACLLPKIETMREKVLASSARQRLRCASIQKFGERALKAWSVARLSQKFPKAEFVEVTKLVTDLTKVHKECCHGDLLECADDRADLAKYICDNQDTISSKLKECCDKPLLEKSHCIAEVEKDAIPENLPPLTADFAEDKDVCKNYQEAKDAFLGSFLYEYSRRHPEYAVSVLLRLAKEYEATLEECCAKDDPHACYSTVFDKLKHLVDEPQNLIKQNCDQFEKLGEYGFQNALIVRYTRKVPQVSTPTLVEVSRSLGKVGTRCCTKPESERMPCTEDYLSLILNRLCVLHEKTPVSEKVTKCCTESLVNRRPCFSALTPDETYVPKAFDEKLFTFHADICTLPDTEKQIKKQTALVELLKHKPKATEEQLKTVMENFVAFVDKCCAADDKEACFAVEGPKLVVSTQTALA"}, "source": "paper PMC8772937", "target": "T1, ZIP9 on L6 myogenic cells (rat (endogenous in L6)) (UniProt Q3KR82)", "T1 sequence": "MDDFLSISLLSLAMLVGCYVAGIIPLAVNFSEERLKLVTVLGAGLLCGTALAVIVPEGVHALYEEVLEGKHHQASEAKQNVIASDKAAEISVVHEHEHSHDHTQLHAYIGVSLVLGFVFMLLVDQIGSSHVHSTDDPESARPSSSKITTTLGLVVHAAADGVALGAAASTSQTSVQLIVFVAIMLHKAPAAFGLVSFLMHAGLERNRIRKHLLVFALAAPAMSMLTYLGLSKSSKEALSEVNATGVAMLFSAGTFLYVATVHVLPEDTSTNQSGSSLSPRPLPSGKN", "assay": "cell-surface labelling with a fluorescent conjugate (fluorescence microscopy); L6 cells incubated with 5 µM BSA-FITC in Tris buffer pH 7.2 for 20 min at room temperature; fixed, imaged; only the binder purified", "note": "No constants are given. Whether binding was seen depends on the method and setting."}
{"substance": "BSA-FITC (lacking testosterone) (from UniProt P02769 25-607)", "values": [{"measurement": "binding", "value": "no binding (tested: 5 µM)"}]}
